Measured values reported in paper PMC7327492.

Sequences of proteins named here, by UniProt entry; tags and fusion partners are left off.
UniProt P46459: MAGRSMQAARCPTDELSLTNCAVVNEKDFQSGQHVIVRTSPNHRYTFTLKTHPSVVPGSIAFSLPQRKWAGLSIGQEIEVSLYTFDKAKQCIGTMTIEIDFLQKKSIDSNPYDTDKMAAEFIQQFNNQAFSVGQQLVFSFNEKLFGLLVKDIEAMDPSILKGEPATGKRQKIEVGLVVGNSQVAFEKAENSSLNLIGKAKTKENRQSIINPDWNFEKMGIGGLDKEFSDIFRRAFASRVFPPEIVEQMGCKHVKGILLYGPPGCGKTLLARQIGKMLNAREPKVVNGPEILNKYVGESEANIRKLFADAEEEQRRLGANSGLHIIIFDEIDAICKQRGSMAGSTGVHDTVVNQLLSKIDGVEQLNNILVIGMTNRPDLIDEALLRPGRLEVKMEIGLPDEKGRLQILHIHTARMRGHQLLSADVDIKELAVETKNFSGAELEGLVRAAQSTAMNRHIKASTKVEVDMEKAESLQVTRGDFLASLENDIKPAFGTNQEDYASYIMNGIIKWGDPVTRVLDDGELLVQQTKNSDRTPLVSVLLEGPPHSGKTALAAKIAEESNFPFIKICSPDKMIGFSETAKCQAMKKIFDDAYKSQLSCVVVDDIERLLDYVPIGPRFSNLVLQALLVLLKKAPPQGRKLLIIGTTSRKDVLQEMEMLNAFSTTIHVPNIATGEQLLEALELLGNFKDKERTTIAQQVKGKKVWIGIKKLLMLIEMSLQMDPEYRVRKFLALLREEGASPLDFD

Target: T1, YFP-tagged 4x(LxxIxE) B56 inhibitor
T1 sequence: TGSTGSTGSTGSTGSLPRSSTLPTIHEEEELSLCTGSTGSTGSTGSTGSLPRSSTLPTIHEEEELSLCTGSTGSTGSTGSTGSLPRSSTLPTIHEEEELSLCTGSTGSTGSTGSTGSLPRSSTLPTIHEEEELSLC
Assay: affinity purification with mass spectrometry; YFP-tagged B56 inhibitor affinity-purified from HeLa cells, quantitative label-free MS against the control inhibitor

## NSF (N-ethylmaleimide-sensitive fusion protein) (from UniProt P46459 1-744)
  binding: binds

These are yes or no findings as the source states them, for the method shown. In cells and extracts the contact can be indirect. A yes stands for co-enrichment or nearness to the bait. Other partners may have been found. Where a sequence is shown, tags or fusion partners need not be part of it.
